Results: US3974277A, “2-[2-(5-Nitro-2-furyl)vinyl]-4-(anilino)quinazolines as growth promotants and feed efficiency enhancing agents” (Diamond Shamrock Corporation, priority 1975, dated 1976)
For at least one compound, name, drawing or mass did not settle the structure.

Key:
[1] = test system: Streptococcus faecalis; test: Bactericide test, agar growth inhibition; format: cell-based; conditions: vs chlortetracycline
Excerpt: (§1) Test formulations were examined for bactericidal and/or bacteriostatic activity against the test organisms shown in Tables A and B. These organisms were chosen as being representative of commercially important pathogens affecting animal agriculture. The antibiotic chlortetracycline was chosen as a positive control, since it has a broad spectrum of activity against a large number of organisms, and its activity can be used for comparative purposes.
(§2) Basic test formulations of the product of Examples I, II, III, and of chlortetracycline were prepared by dissolving 16 mg (0.016 g) in 2.0 ml of stock emulsifier solution (0.25% Triton X-155 in acetone by volume) and making each solution up to 50 ml with deionized water. The concentration of the test compound in the basic formuation was 320 ppm. Lower concentrations of the test compound were obtained by diluting the basic formulation with a 4% solution of the stock emulsifier in deionized water so that each dilution in the series differed only in test compound content.
Nutrient-tryptic soy agar (NTA) consisting of 2.0% Difco Bactoagar 0.8% nutrient broth (Difco), and 0.5% tryptic soy broth (Difco) was prepared and sterilized by autoclaving. A 2 ml aliquot of each test formulation was added to 8 ml of molten NTA. This mixture was then plated in a sterile polystyrene petri dish (100 × 15 mm). […]

[2] = test system: Bordetella bronchiseptica; test: Bactericide test, agar growth inhibition; format: cell-based; conditions: vs chlortetracycline
Excerpt: as §1, §2
(§3) Nutrient-tryptic soy agar (NTA) consisting of 2.0% Difco Bactoagar 0.8% nutrient broth (Difco), and 0.5% tryptic soy broth (Difco) was prepared and sterilized by autoclaving. A 2 ml aliquot of each test formulation was added to 8 ml of molten NTA. This mixture was then plated in a sterile polystyrene petri dish (100 × 15 mm). After the agar was set, suspensions of each of the test organisms were simultaneously streaked into the surface of the agar. The inoculated plates were incubated for 48 hr at 28°C. The inhibition of growth of each organism was rated by visual comparison with the organism developing on non-treated agar. Growth inhibition reported as per cent control was rated in three categories as follows: 0% control, growth equivalent to that on non-treated agar; 50% control, sparse development and separated colonies; 100% control, no visible growth or development of colonies.

[3] = test system: Erysipelothrix rhusiopathiae; test: Bactericide test, agar growth inhibition; format: cell-based; conditions: vs chlortetracycline
Excerpt: as §1, §2, §3

[4] = test system: Streptococcus agalactiae; test: Bactericide test, agar growth inhibition; format: cell-based; conditions: vs chlortetracycline
Excerpt: as §1, §2, §3

[5] = test system: Streptococcus group E; test: Bactericide test, agar growth inhibition; format: cell-based; conditions: vs chlortetracycline
Excerpt: as §1, §2, §3

[6] = test system: Vibrio coli; test: Bactericide test, agar growth inhibition; format: cell-based; conditions: vs chlortetracycline
Excerpt: as §1, §2, §3

[7] = Chick growth promotion, Example XII first test (Table VI); format: in vivo, broiler cross chicks; conditions: first set of tests, 25 g/T
Excerpt: The growth promotion tests described in Example X were repeated with the additional testing the products of Examples II and III.

With `O=[N+]([O-])c1ccc(C=Cc2nc(Nc3ccccc3O)c3ccccc3n2)o1` [Example III, 2-[2-(5-nitro-furyl)vinyl]-4-(o-hydroxyanilino)quinazoline] the “effectiveness compared with chlortetracycline” value [1] was “considerably more effective”, the “effectiveness compared with chlortetracycline” value [2] was “considerably more effective” and the “effectiveness compared with chlortetracycline” value [3] was “considerably more effective”. For the same compound, the “effectiveness compared with chlortetracycline” value [4] was “considerably more effective”, the “effectiveness compared with chlortetracycline” value [5] was “considerably more effective” and the “effectiveness compared with chlortetracycline” value [6] was “considerably more effective”. For the same compound, the “effect on growth rate and feed efficiency (in words)” value [7] was “moderate improvements”.
